This assay deals with His-tagged α subunit of Pol III (E. coli) (UniProt P10443). The assay can be described thus: pull-down; His-tagged Pol α held on Ni-NTA resin, 1:1 ratio of His-tagged Pol α to τ3-CLC, 4 °C for 30 min, 20 mM sodium phosphate, 0.125 M NaCl, 25 mM imidazole, 1 mM ATP, pH 7.4; 13 washes; elution with 500 mM imidazole; stained SDS gel, band intensity ratio of τ (or γ) to α as fractional saturation; both purified.

By UniProt entry, the sequences of proteins in these tests, tags left out. Where a name states a change or a piece, a line headed by the entry shows the natural chain unless it says otherwise.
UniProt P10443: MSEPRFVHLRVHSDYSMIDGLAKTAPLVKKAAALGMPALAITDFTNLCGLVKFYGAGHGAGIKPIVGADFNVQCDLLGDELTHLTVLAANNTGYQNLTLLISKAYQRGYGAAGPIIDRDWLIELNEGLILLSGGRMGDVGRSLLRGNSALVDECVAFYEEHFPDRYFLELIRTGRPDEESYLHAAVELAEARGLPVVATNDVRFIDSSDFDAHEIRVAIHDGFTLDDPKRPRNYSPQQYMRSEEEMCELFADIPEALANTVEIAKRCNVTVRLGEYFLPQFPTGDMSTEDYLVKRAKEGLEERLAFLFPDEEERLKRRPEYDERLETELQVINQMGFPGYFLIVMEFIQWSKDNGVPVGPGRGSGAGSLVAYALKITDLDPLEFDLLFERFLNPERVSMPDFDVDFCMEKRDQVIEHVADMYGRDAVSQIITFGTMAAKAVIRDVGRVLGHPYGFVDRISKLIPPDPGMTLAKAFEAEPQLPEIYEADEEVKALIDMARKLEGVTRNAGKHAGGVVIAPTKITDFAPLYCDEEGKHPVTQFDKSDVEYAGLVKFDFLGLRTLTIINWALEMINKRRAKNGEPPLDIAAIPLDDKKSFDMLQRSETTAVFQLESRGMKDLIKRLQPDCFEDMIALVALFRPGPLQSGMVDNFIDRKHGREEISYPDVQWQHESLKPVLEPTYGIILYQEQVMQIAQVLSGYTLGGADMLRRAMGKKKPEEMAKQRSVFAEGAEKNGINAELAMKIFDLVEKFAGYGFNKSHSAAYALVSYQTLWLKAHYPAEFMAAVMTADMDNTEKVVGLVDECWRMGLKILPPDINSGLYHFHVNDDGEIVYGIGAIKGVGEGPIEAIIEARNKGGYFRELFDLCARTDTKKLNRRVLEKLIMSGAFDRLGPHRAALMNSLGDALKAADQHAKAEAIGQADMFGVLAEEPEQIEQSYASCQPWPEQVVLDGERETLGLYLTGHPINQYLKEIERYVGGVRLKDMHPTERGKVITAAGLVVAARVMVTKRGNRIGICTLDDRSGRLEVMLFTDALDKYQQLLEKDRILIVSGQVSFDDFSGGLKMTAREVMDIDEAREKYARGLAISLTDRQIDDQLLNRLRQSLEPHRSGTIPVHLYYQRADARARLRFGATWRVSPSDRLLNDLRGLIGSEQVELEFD
UniProt P06710: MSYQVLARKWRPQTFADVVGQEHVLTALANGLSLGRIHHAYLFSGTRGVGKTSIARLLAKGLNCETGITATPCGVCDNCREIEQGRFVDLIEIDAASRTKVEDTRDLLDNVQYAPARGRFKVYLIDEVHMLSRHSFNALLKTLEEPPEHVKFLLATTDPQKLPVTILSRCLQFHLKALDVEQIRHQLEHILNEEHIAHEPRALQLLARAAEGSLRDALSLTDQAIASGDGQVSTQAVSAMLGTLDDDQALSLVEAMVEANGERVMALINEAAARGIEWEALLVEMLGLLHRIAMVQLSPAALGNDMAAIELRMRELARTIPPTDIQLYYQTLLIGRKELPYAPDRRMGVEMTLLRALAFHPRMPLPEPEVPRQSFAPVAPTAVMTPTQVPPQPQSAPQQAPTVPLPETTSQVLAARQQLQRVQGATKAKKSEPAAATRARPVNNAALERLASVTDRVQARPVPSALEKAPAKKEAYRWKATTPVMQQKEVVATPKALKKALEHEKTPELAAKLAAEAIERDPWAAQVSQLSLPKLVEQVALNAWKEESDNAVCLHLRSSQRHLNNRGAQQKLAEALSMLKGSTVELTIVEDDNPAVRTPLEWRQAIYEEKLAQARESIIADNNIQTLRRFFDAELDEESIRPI

Results are given in words; binding and its absence hold for the method and conditions named. Some entries that bind do so weakly or less than the wild type.

As for “τ3(L635P/D636G)-CLC (from UniProt P06710 1-643; P28630 1-343; P28631 1-334; P28632 1-137; P28905 1-147) (complex)”, the binding entry was “binds”. The value for “WT τ3-CLC (τ3δδ'ψχ clamp loader complex) (from UniProt P06710 1-643; P28630 1-343; P28631 1-334; P28632 1-137; P28905 1-147)” was “binds”; that for “τ3(S617P)-CLC (from UniProt P06710 1-643; P28630 1-343; P28631 1-334; P28632 1-137; P28905 1-147) (complex)” was “binds”. Under “τ3(I618X)-CLC (from UniProt P06710 1-617; P28630 1-343; P28631 1-334; P28632 1-137; P28905 1-147) (complex)” stands “no binding”.

The values are drawn from paper PMC11470591.
